Results are given in words; binding and its absence hold for the method and conditions named. Some results given as binding are weak or reduced against the parent protein; the word gives no strength.
Biological target: ErbB3 (HER3) expressed on B-Raf mutated tumor cell lines HT29, A375, A2058 and WM115 (human) (UniProt P21860)
Assay: flow cytometry on HT29, A375, A2058 and WM115 cells; specific binding = MFI of labeled probe alone over labeled probe with excess unlabeled probe

By UniProt entry, the sequences of proteins in these tests, tags left out. Where a name states a change or a piece, a line headed by the entry shows the natural chain unless it says otherwise.
UniProt P21860: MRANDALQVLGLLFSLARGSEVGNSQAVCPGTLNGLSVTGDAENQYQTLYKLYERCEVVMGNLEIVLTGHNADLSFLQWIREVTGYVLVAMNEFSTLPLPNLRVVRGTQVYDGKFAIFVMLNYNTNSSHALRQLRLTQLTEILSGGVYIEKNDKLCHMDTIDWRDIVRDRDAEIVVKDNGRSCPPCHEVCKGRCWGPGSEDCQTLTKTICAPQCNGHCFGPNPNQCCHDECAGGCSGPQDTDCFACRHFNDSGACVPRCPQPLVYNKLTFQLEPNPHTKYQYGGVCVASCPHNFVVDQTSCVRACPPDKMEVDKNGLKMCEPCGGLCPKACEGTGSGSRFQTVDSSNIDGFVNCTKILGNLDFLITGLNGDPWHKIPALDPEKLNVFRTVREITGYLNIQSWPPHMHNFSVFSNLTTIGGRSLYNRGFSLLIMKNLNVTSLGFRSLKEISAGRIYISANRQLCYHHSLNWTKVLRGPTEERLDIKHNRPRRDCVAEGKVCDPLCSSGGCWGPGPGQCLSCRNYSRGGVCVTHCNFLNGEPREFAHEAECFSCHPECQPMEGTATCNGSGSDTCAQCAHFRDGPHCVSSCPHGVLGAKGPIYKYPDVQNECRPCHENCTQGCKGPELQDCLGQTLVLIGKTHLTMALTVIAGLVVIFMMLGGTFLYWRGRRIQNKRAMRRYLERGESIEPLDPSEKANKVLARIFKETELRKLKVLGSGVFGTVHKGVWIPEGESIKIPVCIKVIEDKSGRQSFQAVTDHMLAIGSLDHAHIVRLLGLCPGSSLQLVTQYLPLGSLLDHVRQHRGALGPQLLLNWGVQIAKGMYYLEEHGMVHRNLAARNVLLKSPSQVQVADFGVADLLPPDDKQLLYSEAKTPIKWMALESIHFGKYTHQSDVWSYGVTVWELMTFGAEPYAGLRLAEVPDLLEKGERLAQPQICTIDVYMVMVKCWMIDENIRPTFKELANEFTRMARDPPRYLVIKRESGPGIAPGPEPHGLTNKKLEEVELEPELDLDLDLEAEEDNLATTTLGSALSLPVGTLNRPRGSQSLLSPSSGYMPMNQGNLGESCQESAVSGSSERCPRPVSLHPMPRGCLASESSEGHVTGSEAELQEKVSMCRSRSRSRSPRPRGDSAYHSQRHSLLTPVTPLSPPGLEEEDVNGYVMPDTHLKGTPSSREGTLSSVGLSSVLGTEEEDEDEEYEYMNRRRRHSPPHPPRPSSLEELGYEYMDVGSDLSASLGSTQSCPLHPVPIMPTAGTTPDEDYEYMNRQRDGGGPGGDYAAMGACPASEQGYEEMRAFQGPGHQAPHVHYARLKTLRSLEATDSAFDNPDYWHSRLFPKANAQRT

binding: binds
B1: 2C2-YTE anti-HER3 antibody (antibody, V domains shown)
VH: EVQLLESGGGLVQPGGSLRLSCAASGFTFSYYYMQWVRQAPGKGLEWVSYIGSSGGVTNYADSVKGRFTISRDNSKNTLYLQMNSLRAEDTAVYYCARVGLGDAFDIWGQGTMVTVSS
VL: QSVLTQPPSASGTPGQRVTISCSGSLSNIGLNYVSWYQQLPGTAPKLLISRNNQRPSGVPDRFSGSKSGTSASLAISGLRSEDEADYYCAAWDDSPPGEAFGGGTKLTVL

Reference: patent US20180362443A1
